“Also recorded” adds a separate entry of the source. At least one compound was matched to its structure with a doubt left.
Key:
[1] = test system: mutant pre-miR-155 (RIBOTAC site mutated to AU and GC base pairs); experiment: In vitro RNase L cleavage of pre-miR-155 with mutated RNase L cleavage (RIBOTAC) site; assay type: biochemical, human
[2] = test system: mutant pre-miR-155 (5′GAU/3′C_A bulge mutated to an AU base pair); experiment: In vitro RNase L cleavage of pre-miR-155 with mutated small molecule binding site; assay type: biochemical, human

CCOC(=O)C1=C(Nc2ccccc2)S/C(=C\c2ccc(OCCOCCOCCOCCNC(=O)CCc3c(C)n(-c4c(C(C)C)cccc4C(C)C)c[n+]3-c3c(C(C)C)cccc3C(C)C)c(O)c2)C1=O [Compound 3]
cleavage of pre-miR-155 mutated at the RNase L cleavage site [1]: no effect; also recorded: ablated | cleavage of pre-miR-155 mutated at the small molecule binding site [2]: ablated cleavage; also recorded: ablates RNase L cleavage

Source: patent publication US20250339542A1, “CONVERSION OF A BIOLOGICALLY SILENT MIRNA BINDING SMALL MOLECULE TO AN MIRNA DEGRADER” (University of Florida Research Foundation, Incorporated, priority 2020, published 2025)
